Measurements from article PMC6314972.
Results are given in words; binding and its absence hold for the method and conditions named. In cells and extracts the contact can be indirect. Some entries that bind do so weakly or less than the wild type.

Amino acid sequences for entries named in this document (tags omitted).
UniProt Q9UBN7: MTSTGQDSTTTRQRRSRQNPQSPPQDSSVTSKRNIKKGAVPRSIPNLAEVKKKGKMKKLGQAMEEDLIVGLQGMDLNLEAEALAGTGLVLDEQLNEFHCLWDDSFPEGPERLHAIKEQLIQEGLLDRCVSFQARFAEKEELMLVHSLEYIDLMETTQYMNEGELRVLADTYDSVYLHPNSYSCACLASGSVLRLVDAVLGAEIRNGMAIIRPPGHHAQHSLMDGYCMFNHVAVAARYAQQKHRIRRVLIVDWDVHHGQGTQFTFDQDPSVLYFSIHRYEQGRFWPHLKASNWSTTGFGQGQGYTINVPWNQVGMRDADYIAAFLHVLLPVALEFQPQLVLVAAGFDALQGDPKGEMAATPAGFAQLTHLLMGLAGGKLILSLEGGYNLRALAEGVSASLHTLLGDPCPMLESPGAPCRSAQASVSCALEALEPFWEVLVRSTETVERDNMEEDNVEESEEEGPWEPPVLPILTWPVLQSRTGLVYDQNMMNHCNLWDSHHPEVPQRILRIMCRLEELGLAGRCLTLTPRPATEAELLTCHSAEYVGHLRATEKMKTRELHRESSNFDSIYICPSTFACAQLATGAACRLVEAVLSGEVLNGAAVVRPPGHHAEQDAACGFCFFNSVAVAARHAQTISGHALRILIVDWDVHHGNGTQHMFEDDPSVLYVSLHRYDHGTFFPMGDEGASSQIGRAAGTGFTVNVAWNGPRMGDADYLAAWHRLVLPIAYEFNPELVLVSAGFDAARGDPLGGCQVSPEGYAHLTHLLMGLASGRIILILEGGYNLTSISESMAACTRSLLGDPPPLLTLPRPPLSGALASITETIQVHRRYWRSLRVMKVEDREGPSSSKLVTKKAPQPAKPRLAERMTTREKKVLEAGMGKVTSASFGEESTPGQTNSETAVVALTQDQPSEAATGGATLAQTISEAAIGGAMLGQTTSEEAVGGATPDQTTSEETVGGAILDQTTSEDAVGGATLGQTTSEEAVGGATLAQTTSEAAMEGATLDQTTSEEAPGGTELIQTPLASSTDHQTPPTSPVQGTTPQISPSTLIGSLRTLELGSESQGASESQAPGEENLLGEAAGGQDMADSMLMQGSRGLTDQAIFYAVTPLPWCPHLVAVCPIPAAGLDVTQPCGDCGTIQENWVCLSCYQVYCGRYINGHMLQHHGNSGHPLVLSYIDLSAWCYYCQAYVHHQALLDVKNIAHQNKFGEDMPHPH

Target: T1, myocardin-related transcription factor A (MRTF-A) (human (endogenous in HEK293)) (UniProt Q969V6)
T1 sequence: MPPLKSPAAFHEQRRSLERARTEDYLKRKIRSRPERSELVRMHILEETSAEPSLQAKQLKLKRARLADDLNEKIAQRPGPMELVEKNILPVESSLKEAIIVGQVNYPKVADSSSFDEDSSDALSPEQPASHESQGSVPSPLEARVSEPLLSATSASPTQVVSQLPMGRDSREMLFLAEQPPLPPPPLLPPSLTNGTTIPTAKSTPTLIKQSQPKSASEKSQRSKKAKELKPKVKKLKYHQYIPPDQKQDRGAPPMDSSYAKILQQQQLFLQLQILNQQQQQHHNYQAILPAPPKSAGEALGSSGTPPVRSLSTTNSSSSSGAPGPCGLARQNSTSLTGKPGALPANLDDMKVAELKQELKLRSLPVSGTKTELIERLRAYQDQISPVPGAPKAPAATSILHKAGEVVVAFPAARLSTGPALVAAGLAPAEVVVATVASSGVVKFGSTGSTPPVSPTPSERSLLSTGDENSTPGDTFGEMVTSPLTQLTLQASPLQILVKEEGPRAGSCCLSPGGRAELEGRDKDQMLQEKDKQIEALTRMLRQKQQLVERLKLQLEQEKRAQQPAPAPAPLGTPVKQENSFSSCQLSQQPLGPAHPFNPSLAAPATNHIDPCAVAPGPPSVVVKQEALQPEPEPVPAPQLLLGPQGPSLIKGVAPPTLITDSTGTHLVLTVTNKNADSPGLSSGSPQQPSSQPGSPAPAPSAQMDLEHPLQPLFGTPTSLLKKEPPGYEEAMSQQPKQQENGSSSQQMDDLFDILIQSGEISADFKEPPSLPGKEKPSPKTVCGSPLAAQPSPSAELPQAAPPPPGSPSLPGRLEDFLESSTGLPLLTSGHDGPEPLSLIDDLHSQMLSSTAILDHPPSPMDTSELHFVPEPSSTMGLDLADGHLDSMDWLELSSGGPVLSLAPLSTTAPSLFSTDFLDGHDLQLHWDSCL
Test: co-IP; lysate of HEK293 cells overexpressing HDAC6; incubated overnight at 4°C with 1 to 2 μg MRTF-A antibody or IgG control; Protein A/G agarose beads; Western blot for HDAC6 and MRTF-A

- binding: binds
Substance: histone deacetylase 6 (HDAC6), FLAG-tagged (from UniProt Q9UBN7 1-1215) (enzyme)
